The values below come from PubChem BioAssay AID638 (SRMLSC, 2007).

Screen size: about 1,300 compounds; about 65 (5%) were called active.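 Rule for the calls: active = growth inhibition reaching a set limit at one or more tested doses; inactive = the rest.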 The list shows a part of the results. Potency and affinity values are given separately.

The experiment in a line: wild-type E. coli BW25113 antibacterial activity – OD615, dose response (AID 638). The note with it: at 100 µM (top of the series) unless noted. Put shortly: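 assay system = wild-type Escherichia coli strain BW25113 growth | medium = Kanamycin-supplemented LB broth | measured by = optical density (absorbance) at 615 nm | timing = bacterial exposure to compound 20 h at 37 °C | doses = compound concentration series | measure = IC50 from 4-parameter logistic, bounds fixed 0–100% | controls = chloramphenicol 30 µM control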
For `C=C(C)COc1ccc(-c2[nH]ncc2-c2ccc(OC)c(OC)c2)c(O)c1`, the growth inhibition was inactive: -5.87%.

For the compound `CCc1cc2cc(C(=O)N3CCN(Cc4ccccc4)CC3)sc2s1`, the growth inhibition was inactive: 1.79%.

With `O=C(CN1CCN(c2nc(-c3ccc(F)cc3)cs2)CC1)NCc1ccc2c(c1)OCO2`, the growth inhibition was inactive: -2.02%.

Turning to `Cc1cc(C)c2cc(CN(CCO)C(c3nnnn3Cc3ccc(F)cc3)C(C)C)c(=O)[nH]c2c1` (centres undefined), the growth inhibition was inactive: -2.71%.

On to `O=C(CC1CCCCC1)c1c(O)c2ccccc2oc1=O`, for which the growth inhibition is inactive: 6.46%.

Regarding `COc1ccc(-c2c3c(=O)n(C)c(=O)n(C)c3cn2-c2ccccc2)cc1`, the growth inhibition was inactive: -0.92%.

For `COc1ccc(-n2c(Cc3cccn3C)nnc2SCC(=O)Nc2ccc(C)c(Cl)c2)cc1`, the growth inhibition is inactive: -1.46%.

On to `CCc1nc2ccccc2c(=O)n1NC(=O)c1c(O)c2ccccc2[nH]c1=O`, for which the growth inhibition was inactive: -2.8%.

`CC(C)C1O/C(=N/C(=O)Nc2ccc(Cl)c(Cl)c2)NC1=O` (centres undefined): the growth inhibition is inactive: 15.6% [at 50 µM].

For the compound `CCCCOC(=O)Nc1cc(C(=O)OC)ccc1C(=O)OC`, the growth inhibition is inactive: -1.46%.

In the case of `COc1cc(/C=C(/C#N)c2ccc(F)cc2)ccc1OCc1ccc(C(=O)O)o1`, the growth inhibition was inactive: -7.91%.

Turning to `Cc1cc(N2CCC(C(=O)Nc3ccc(F)cc3)CC2)nc(-c2ccccc2)n1`, the growth inhibition is inactive: -7.63%.

Turning to `O=C(Nc1nc(-c2ccccn2)cs1)C1COc2ccccc2O1` (centres undefined), the growth inhibition is inactive: 3.24%.

For `CCCCCOC(=O)c1[nH]c2c(c1C)C(=O)C(C(=O)OC)C(C)C2` (centres undefined), the growth inhibition is inactive: -12.8%.

For the compound `CCOC(=O)C1(N(CC)CC)Sc2cc(C)ccc2NC1=O` (centres undefined), the growth inhibition is inactive: -8.78%.

For `CCn1cc(Br)c(C(=O)Nc2ccc(C(=O)OC(C)C)cc2)n1`, the growth inhibition is inactive: 13.3%.

Consider `COCc1nnc(NC(=O)c2ccc(S(=O)(=O)N(C)C3CCCCC3)cc2)o1`, for which the growth inhibition is inactive: -0.64%.

Take `Cc1ccc(-c2csc3ncn(-n4c(C)ccc4C)c(=O)c23)o1`: the growth inhibition was inactive: -17.4%.

Regarding `COc1ccc(S(=O)(=O)Nc2ccccc2C(=O)NCc2ccco2)cc1Br`, the growth inhibition is inactive: -8.03%.

`Cc1noc(C)c1S(=O)(=O)N(CCc1ccccc1)Cc1ccccc1`: the growth inhibition was inactive: 1.54%.

`CC1=C(C#N)c2nc(N)c(C#N)c(C)c2/C1=C\c1ccccc1`: the growth inhibition is inactive: -0.01%.

Regarding `c1ccc(-c2nc(N3CCCCCC3)nc(-n3ccnc3)n2)cc1`, the growth inhibition was inactive: 6.7%.

With `COc1cc2c(C#N)c(N3CCc4ccccc4C3)nc(N)c2c(N)n1`, the growth inhibition was inactive: -3.62%.

For the compound `CCCCSC1=C(C#N)C(c2ccccc2C)C(C(=O)OCC)C(=O)N1` (centres undefined), the growth inhibition is inactive: -1.85%.

As for `CCCCCOC(=O)c1ccc(NC(=O)c2ccco2)cc1`, the growth inhibition is inactive: -0.06%.

For the compound `O=C(c1cccc(COc2ccc(Cl)cc2Cl)c1)N1CCN(c2ccccn2)CC1`, the growth inhibition was inactive: -14.7%.

`CCc1ccccc1NS(=O)(=O)c1ccc(SC)cc1`: the growth inhibition was inactive: -2.8%.

In the case of `CC(C)Cn1c(=O)c(C(=O)Nc2cnccn2)c(O)c2ccccc21`, the growth inhibition is inactive: 16.1%.

Consider `COc1cccc(-c2cc(C(F)(F)F)nc(N3CCOCC3)n2)c1`, for which the growth inhibition is inactive: 8.99%.

With `c1ccc(N2CCN(c3ncnc4c3oc3ccccc34)CC2)cc1`, the growth inhibition was inactive: -9.68%.

`COc1ccccc1OCC(=O)N(Cc1nc(-c2ccccc2)no1)C1CCCCC1`: the growth inhibition was inactive: -2.24%.

As for `[O-][N+]1=c2ccc(Nc3ccccc3)cc2=NC12CCCCC2`, the growth inhibition is inactive: 15.1%.

For `O=C(Nc1ccc(Cl)c(C(F)(F)F)c1)c1ccco1`, the growth inhibition is inactive: 14.6%.

For `COc1ccc(NS(=O)(=O)c2ccc3c(c2)Cc2ccccc2-3)cn1`, the growth inhibition was inactive: 5.81%.

Consider `Cc1cccc(N2CCN(C(=O)C34CC5CC(CC(C5)C3)C4)CC2)c1C`, for which the growth inhibition is inactive: -0.38%.

With `COC(=O)c1c(NC(=O)CCc2ccc(C)o2)sc(C)c1C`, the growth inhibition is inactive: 3.59%.

Take `CCOc1ccccc1-c1nn2c(Cc3ccccc3)nnc2s1`: the growth inhibition was inactive: 0.14%.

In the case of `O=C1c2ccccc2C(O)(Cc2ccccc2)N1C1CCCCC1` (centres undefined), the growth inhibition is inactive: -0.01%.

Take `N#Cc1c(NC(=O)c2ccc(Cn3cc(Br)cn3)o2)sc2c1CCCCCC2`: the growth inhibition is inactive: -7.72%.

As to `O=c1c2ccccc2nc(SCc2cn3ccsc3n2)n1-c1ccccc1F`, the growth inhibition was inactive: -8.01%.

In the case of `Cc1ccccc1S(=O)(=O)Cc1ccc(C(=O)N2CCN(c3cccc(C)c3C)CC2)o1`, the growth inhibition was inactive: 7.63%.

For `O=C(Nc1ccc2c(c1)OCO2)c1ccc(COc2ccc3c(c2)CCC3)o1`, the growth inhibition was inactive: 3.11%.

For `Clc1ccc(C2=Nn3c(nnc3-c3n[nH]c4c3CCC4)SC2)cc1Cl`, the growth inhibition is inactive: 1.98%.

Take `CC1CC(C)CN(c2ncnc3c2cnn3Cc2ccc(Cl)cc2)C1` (centres undefined): the growth inhibition is inactive: 0.14%.

On to `O=S(=O)(Nc1ncnc2sc3c(c12)CCC3)c1ccc(Cl)s1`, for which the growth inhibition was inactive: 1.27%.

As to `CCOC(=O)c1c(NS(=O)(=O)c2cccc(OC)c2)sc2c1CCC2`, the growth inhibition was inactive: -5.74%.

Regarding `Cc1ccc2ccc(S(=O)(=O)n3nc(C)cc3C)cc2c1`, the growth inhibition is inactive: -6.55%.

For the compound `O=C(Nc1ccc(Cl)cc1)N(Cc1cccs1)Cc1cccs1`, the growth inhibition is inactive: -8.41%.

With `O=C(Nc1nc(-c2cccs2)cs1)c1ccc(Cl)s1`, the growth inhibition is inactive: -19.4%.

`c1csc(-c2nc3nc4ccccc4nc3n2Cc2ccc3c(c2)OCO3)c1`: the growth inhibition was inactive: -7.29%.

For the compound `Cc1ccccc1Cn1nc(C)c(NC(=O)c2noc3c2CCc2ccccc2-3)c1C`, the growth inhibition was inactive: -22.3%.

In the case of `CCn1c(SCC(=O)Nc2nc(-c3ccccc3)cs2)nnc1-c1ccccc1O`, the growth inhibition is inactive: -7.1%.

Turning to `Cc1cccc(Nc2nc(-c3ccccn3)cs2)n1`, the growth inhibition is inactive: 4.37%.

With `CCCn1c(CN(Cc2ccccc2)Cc2ccccc2)nc2c1c(=O)n(C)c(=O)n2C`, the growth inhibition was inactive: -4.03%.

Turning to `CCC1CCCCN1S(=O)(=O)c1ccc2c(c1)CCN2C(=O)C1CCC1` (centres undefined), the growth inhibition was inactive: 9.61%.

`CC(C)COc1ccc(-c2nnc(-c3ccco3)o2)cc1`: the growth inhibition is inactive: -6.53%.

In the case of `CC(C)(C)c1csc(NC(=O)c2ccc(Cl)s2)n1`, the growth inhibition is inactive: 4.06%.

Take `O=C1Nc2ccccc2C12OCC(COc1ccc(Cl)cc1)O2` (centres undefined): the growth inhibition is inactive: 12.3%.

With `Cc1cc(N2CCCCC2)nc(SCc2ccc(C#N)cc2)n1`, the growth inhibition was inactive: -5.55%.
